According to the supplement of paper PMC10849652:
This is one part of the list.

By UniProt entry, the sequences of proteins in these tests, tags left out. Where a name states a change or a piece, a line headed by the entry shows the natural chain unless it says otherwise.
UniProt Q8NA75: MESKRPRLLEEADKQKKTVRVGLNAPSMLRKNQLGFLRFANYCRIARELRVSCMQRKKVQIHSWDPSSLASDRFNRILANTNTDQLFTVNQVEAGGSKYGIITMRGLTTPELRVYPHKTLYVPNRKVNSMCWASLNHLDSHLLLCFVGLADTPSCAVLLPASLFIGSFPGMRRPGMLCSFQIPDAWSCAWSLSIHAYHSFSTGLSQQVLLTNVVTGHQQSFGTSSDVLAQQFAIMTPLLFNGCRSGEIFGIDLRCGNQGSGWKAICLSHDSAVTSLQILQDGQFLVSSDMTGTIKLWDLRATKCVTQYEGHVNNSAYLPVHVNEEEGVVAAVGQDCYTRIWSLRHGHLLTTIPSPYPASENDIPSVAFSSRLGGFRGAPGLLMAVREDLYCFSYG
UniProt Q9NWV4: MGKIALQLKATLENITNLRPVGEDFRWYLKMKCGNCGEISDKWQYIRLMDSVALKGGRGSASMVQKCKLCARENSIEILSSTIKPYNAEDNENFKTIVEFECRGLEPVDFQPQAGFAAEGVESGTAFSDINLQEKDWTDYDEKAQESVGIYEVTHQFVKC
UniProt Q15438: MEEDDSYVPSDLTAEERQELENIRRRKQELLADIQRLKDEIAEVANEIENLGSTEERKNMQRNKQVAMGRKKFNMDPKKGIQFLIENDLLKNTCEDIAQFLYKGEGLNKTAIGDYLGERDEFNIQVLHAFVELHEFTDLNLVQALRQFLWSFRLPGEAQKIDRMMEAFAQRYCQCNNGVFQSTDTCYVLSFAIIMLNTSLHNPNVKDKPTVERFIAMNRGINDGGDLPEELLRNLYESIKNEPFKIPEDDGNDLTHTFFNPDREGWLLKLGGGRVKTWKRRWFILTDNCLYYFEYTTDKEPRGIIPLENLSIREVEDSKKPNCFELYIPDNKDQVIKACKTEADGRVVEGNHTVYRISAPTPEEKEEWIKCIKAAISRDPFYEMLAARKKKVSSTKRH
UniProt P49711: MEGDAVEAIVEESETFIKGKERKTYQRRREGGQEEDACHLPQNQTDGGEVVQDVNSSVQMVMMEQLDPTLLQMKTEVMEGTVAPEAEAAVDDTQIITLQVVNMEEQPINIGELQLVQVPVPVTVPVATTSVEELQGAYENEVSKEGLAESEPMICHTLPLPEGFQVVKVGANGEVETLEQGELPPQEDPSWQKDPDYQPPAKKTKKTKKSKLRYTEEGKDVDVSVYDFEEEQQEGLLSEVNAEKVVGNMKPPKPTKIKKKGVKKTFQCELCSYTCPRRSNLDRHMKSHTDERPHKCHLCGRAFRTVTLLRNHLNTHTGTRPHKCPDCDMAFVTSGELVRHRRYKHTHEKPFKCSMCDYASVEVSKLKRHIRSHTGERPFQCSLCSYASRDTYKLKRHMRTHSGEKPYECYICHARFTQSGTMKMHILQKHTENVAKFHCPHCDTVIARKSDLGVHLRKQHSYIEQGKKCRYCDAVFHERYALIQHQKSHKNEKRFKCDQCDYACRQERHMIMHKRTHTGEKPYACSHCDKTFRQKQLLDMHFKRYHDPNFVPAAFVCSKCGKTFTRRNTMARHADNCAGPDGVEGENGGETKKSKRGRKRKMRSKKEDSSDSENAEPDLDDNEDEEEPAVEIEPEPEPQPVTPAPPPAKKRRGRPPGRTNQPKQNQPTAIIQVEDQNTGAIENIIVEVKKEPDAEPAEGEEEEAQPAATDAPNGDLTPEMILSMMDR
UniProt P61803: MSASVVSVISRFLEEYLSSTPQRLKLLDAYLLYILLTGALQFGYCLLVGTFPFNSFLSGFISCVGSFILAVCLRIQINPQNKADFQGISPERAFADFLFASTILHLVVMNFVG
UniProt Q9UHQ9: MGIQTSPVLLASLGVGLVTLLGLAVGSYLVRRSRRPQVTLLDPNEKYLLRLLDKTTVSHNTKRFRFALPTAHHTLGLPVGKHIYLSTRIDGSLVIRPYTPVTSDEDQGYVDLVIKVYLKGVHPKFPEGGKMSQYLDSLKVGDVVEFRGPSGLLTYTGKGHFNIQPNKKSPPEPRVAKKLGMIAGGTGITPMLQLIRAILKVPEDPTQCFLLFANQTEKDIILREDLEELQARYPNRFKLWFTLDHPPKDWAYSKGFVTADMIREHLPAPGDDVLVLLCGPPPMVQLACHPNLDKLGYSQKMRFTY
UniProt P00387: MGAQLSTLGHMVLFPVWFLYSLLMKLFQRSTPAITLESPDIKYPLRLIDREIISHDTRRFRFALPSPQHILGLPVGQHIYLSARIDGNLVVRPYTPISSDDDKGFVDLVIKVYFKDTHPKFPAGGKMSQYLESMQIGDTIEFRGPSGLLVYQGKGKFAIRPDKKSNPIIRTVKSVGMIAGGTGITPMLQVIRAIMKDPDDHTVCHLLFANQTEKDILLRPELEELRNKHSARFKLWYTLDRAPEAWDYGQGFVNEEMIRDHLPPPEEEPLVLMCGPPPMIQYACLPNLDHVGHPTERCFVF
UniProt Q1MSJ5: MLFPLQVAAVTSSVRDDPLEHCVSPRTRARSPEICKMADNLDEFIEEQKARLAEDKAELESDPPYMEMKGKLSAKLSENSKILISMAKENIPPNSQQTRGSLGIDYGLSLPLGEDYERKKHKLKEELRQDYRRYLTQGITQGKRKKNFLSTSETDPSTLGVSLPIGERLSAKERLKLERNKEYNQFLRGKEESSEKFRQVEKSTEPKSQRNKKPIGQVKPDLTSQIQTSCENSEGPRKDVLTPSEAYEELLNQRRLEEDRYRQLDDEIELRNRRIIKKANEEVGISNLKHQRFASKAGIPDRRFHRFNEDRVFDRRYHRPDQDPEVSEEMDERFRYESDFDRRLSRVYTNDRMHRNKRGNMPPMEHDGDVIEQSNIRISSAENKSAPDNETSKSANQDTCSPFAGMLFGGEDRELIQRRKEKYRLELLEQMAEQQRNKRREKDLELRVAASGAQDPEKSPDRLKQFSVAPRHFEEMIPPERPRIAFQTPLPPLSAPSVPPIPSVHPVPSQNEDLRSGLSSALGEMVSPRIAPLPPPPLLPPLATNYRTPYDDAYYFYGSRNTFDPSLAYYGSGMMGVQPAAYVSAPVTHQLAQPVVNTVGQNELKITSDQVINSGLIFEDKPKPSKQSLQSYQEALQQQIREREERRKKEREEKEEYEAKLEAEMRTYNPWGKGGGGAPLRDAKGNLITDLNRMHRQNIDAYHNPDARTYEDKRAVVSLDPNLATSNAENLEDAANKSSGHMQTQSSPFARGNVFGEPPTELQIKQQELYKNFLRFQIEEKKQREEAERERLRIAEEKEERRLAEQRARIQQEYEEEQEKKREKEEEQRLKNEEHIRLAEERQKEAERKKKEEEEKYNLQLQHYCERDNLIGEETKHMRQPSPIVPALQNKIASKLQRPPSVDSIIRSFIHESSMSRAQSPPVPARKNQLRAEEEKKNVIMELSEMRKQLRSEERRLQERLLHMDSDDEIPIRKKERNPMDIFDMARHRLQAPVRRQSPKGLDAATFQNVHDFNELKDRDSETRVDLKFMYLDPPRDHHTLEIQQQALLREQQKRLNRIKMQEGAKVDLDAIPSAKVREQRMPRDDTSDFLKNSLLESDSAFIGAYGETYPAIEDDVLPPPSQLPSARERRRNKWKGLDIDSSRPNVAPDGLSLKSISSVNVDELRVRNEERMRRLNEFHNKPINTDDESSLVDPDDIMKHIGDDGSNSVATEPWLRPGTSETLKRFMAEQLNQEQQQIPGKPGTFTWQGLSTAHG
UniProt Q7L1T6: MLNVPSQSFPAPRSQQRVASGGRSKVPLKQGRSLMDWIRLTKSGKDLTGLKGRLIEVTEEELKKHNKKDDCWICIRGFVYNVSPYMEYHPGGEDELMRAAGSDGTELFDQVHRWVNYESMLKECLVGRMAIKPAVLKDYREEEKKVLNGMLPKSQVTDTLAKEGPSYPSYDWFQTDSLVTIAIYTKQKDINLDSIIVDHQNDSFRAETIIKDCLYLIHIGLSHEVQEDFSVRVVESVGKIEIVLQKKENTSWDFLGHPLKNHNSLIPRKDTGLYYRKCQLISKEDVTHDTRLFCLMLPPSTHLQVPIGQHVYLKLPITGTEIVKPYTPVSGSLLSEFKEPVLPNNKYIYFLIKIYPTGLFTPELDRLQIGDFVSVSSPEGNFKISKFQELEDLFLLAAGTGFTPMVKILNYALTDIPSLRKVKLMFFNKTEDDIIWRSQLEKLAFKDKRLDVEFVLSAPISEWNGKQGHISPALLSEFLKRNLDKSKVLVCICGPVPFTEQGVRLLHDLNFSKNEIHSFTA
UniProt P49447: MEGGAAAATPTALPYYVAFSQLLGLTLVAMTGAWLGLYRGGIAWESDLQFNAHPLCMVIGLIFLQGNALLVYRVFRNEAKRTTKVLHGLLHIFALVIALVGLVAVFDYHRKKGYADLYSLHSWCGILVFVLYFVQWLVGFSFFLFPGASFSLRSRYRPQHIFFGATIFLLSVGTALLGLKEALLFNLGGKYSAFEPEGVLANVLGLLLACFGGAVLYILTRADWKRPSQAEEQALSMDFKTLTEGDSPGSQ
UniProt Q96C86: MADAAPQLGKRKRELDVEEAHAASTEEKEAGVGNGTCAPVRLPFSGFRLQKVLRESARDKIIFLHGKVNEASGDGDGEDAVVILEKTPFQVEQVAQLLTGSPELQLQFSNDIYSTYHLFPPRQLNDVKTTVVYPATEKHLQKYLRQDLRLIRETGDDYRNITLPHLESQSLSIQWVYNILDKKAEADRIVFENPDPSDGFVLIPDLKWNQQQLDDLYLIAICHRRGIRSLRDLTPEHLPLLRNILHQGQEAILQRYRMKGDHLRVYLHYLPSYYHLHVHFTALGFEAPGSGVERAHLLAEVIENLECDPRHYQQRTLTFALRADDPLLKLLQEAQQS
UniProt Q9NRF8: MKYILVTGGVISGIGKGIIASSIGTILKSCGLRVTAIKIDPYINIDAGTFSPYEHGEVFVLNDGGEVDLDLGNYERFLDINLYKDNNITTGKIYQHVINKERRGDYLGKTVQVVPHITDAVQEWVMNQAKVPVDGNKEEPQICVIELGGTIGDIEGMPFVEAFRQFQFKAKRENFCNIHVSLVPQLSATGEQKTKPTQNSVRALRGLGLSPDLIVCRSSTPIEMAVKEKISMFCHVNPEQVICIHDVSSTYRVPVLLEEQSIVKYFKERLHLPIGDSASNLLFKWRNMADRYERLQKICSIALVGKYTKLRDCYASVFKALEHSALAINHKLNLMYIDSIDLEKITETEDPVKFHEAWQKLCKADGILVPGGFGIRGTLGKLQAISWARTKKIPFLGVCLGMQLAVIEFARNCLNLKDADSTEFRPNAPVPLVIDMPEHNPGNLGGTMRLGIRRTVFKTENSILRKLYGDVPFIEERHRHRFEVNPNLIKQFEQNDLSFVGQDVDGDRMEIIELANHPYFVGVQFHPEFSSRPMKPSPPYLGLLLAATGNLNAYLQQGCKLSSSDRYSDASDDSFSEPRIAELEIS
UniProt Q53TN4: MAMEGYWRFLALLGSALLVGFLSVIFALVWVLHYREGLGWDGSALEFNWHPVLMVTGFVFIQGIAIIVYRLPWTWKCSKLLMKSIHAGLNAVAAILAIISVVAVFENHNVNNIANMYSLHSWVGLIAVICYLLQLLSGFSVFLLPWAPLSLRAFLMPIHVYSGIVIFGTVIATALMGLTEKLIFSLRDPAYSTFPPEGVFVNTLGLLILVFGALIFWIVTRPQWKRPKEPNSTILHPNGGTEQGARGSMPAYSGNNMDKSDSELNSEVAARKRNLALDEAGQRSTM
UniProt Q9H0L4: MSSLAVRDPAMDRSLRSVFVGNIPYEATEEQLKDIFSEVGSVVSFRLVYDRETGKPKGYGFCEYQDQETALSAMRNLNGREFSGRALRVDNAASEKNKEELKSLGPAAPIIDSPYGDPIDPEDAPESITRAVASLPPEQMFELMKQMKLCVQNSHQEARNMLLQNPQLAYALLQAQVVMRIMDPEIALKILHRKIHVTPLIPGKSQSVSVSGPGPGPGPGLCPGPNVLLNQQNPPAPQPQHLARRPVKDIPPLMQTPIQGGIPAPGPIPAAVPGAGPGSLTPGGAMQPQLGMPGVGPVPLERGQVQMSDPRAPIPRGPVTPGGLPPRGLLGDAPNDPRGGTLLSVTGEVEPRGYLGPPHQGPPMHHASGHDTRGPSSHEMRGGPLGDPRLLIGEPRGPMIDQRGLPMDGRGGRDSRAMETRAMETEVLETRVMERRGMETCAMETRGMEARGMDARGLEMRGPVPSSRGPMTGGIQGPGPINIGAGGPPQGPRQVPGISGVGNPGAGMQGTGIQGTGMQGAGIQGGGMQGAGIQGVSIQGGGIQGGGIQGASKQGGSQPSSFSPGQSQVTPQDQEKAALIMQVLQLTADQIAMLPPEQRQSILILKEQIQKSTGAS
UniProt Q9NTM9: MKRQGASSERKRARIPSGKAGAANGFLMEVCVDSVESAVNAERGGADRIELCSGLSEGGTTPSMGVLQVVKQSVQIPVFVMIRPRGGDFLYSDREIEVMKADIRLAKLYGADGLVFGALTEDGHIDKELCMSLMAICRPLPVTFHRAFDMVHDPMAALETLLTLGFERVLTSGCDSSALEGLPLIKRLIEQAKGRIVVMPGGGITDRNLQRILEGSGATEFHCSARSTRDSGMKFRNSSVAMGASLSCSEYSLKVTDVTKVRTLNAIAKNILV

Each target was assayed with c1cn2cc(-c3ccc4cn[nH]c4c3)nc(Nc3ccc(N4CCOCC4)cc3)c2n1 [entospletinib] (assay: log2 fold change, soluble protein after heating vs DMSO (PISA); higher = thermal stabilisation; K562 cells, 10 uM, 30 min; active = over 0.2 and 3.5 SD of the protein, either way, in both replicates (recomputed)).
Method in brief: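 Values are thermal stability changes relative to control samples and are taken from duplicates. They are stated as log2 fold changes. Before quantification by TMTpro 16plex LC-MS/MS with equalised channel sums, K562 cells at 2×10^6 cells/mL were treated with 10 μM compound for 30 min, heated in aliquots for 3 min across 48°C-58°C, pooled, extracted in PBS with 0.5% NP-40 at 4°C, and centrifuged at 21,000xg for 90 min to give the soluble supernatant.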

log2 fold change, inactive:
DCAF4L2 (UniProt Q8NA75) -0.083
CWF19L1 (UniProt Q69YN2) 0.014
CZIB (UniProt Q9NWV4) 0.039
CYTH1 (UniProt Q15438) 0.16
CTCF (UniProt P49711) 0.098
DCAF15 (UniProt Q66K64) -0.102
CUL3 (UniProt Q13618) -0.051
CST6 (UniProt Q15828) -0.009
DAD1 (UniProt P61803) -0.149
CYB5R1 (UniProt Q9UHQ9) 0.027
CYB5R3 isoform 3 (UniProt P00387) -0.006
CSPP1 (UniProt Q1MSJ5) 0.104
CYB5R4 (UniProt Q7L1T6) 0.013
DCAF8 (UniProt Q5TAQ9) 0.014
CYB561 (UniProt P49447) 0.073
DCPS (UniProt Q96C86) -0.048
CTPS2 (UniProt Q9NRF8) -0.031
CYBRD1 (UniProt Q53TN4) 0.147
CUL2 isoform 2 (UniProt Q13617) 0.005
CTTN (UniProt Q14247) -0.001
CSTF2T (UniProt Q9H0L4) -0.054
CUTC (UniProt Q9NTM9) 0.026
DBI isoform 5 (UniProt P07108) 0.076

No new results follow: an excerpt of the list.
log2 fold change, inactive:
CTCF (UniProt P49711) 0.098
DCAF15 (UniProt Q66K64) -0.102
